The other results are listed elsewhere or left out.
These targets were tested with CC1Cc2ccccc2N1C(=O)C1CCCN(C1)C(=O)CCl (mixture of isomers) [TRIM25 ligand 11 (diastereomer mixture)] (assay: probe-labelled cysteine peptide fold change vs DMSO (competition) (log2 fold change); higher = less target engagement (more negative = stronger competition)). Conditions: 50 µM; THP-1; incubation time: 4 h.
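Note: competitive chemoproteomic profiling in live THP-1 cells with an iodoacetamide desthiobiotin (IA-DTB) probe, comparing probe-labelled peptide intensities in compound-treated cells against DMSO-treated controls.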

By UniProt entry, the sequences of proteins in these tests, tags left out. Where a name states a change or a piece, a line headed by the entry shows the natural chain unless it says otherwise.
UniProt Q9Y3S2: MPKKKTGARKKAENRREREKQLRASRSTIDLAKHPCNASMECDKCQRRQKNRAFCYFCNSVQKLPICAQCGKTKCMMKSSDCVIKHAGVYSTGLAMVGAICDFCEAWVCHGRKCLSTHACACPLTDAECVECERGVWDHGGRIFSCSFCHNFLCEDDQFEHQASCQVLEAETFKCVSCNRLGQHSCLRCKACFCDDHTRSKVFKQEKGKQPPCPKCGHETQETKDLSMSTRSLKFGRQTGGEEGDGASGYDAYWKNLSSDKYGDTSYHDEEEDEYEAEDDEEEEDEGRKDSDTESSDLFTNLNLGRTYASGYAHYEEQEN
UniProt Q96B54: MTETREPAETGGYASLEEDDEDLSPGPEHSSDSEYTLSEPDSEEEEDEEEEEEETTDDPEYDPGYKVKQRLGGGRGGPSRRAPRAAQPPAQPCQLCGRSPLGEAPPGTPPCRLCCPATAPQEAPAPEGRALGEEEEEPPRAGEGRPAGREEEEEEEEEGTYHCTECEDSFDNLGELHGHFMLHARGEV
UniProt Q96K83: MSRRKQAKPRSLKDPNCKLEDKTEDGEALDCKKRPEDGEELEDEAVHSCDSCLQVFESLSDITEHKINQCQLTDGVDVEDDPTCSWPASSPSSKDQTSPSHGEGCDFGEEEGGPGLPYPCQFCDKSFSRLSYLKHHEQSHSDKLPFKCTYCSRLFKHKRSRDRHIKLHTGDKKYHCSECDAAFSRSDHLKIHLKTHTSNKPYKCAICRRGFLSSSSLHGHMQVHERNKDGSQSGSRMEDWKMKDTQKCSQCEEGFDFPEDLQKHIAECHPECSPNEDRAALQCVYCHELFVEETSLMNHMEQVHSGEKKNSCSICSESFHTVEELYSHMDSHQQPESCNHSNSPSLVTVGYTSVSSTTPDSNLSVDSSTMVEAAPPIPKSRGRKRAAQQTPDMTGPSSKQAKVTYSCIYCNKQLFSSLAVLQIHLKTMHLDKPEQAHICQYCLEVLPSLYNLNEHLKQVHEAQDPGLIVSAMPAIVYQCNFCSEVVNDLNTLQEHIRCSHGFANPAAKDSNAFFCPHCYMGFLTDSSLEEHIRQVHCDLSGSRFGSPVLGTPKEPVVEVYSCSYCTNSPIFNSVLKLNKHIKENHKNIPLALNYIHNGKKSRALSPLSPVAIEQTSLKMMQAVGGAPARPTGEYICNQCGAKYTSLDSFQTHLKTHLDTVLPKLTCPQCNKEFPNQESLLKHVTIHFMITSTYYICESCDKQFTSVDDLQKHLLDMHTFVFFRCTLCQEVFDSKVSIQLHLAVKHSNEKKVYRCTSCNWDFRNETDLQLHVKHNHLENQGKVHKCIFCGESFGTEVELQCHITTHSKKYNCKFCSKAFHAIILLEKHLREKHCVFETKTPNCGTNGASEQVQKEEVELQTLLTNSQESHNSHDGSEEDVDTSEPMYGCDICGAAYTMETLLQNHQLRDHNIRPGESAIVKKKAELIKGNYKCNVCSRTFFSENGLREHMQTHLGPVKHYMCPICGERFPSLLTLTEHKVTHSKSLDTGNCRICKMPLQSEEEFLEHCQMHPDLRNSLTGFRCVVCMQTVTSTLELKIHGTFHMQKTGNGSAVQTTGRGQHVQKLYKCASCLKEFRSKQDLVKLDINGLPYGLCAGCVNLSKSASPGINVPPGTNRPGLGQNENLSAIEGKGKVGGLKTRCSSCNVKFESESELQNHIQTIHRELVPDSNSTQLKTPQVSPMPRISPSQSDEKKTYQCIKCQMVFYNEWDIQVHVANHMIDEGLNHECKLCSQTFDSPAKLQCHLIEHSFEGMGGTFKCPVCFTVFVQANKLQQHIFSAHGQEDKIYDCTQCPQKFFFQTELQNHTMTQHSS
UniProt Q9Y4E5: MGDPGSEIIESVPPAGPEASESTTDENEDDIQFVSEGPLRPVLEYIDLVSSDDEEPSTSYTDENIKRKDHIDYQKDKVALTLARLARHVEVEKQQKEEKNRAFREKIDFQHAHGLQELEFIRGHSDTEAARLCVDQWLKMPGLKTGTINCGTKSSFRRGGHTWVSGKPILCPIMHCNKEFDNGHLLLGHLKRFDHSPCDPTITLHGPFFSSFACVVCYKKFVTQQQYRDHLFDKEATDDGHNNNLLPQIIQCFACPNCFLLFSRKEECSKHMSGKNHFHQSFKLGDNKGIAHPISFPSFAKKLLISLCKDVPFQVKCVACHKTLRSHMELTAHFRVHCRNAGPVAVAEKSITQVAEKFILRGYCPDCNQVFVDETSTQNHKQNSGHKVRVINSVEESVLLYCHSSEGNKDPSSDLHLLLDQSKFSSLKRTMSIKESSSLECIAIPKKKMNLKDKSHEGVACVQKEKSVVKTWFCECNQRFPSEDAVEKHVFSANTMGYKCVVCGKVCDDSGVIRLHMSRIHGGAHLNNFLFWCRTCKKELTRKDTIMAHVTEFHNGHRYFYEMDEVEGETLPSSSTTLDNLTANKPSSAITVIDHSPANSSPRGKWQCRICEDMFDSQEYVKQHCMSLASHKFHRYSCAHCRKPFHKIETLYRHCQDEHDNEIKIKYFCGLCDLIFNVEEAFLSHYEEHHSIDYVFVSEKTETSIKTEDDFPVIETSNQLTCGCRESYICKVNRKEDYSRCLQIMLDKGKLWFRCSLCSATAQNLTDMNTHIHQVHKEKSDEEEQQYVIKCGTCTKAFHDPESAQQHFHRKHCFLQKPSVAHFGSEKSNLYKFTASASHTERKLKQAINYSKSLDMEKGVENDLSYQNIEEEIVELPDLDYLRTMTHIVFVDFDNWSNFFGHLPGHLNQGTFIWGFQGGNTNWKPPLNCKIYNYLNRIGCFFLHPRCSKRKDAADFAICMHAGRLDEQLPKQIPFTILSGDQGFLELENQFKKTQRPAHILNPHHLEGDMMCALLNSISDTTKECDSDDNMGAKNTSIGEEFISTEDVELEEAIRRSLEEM
UniProt Q14202: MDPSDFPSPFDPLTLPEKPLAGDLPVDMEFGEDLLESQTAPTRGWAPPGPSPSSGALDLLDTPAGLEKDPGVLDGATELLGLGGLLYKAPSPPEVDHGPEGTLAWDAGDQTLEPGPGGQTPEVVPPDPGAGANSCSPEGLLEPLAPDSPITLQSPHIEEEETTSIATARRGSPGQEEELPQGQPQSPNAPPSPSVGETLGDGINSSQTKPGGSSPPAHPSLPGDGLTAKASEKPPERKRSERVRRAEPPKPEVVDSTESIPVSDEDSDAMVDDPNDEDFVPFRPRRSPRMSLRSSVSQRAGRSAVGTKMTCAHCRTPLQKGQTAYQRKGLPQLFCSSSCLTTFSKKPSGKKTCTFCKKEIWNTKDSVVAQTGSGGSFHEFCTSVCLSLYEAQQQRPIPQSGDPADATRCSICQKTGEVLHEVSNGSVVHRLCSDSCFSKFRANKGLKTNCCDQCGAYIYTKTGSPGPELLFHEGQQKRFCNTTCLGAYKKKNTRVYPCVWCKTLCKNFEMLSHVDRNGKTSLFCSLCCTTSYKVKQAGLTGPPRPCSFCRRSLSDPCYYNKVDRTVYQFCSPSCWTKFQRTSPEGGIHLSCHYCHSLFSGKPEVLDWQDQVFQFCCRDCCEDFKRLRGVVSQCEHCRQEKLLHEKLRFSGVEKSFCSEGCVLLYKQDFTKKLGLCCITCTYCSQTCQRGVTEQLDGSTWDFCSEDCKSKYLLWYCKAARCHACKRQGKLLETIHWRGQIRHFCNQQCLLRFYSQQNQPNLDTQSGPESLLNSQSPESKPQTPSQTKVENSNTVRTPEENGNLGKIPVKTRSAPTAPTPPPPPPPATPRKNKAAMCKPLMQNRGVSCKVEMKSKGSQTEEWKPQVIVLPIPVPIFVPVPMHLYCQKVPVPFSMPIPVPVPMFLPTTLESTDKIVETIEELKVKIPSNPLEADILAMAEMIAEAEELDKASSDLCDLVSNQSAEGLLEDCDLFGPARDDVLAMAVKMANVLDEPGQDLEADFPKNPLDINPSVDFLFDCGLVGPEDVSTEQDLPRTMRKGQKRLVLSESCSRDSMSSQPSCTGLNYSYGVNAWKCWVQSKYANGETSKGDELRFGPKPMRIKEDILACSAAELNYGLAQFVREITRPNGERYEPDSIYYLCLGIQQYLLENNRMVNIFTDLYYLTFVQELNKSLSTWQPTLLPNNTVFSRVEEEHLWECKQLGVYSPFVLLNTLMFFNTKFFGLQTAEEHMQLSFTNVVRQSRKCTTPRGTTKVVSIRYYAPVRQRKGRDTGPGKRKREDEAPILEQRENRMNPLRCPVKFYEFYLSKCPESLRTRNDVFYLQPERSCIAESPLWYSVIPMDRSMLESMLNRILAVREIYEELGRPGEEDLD
UniProt P17026: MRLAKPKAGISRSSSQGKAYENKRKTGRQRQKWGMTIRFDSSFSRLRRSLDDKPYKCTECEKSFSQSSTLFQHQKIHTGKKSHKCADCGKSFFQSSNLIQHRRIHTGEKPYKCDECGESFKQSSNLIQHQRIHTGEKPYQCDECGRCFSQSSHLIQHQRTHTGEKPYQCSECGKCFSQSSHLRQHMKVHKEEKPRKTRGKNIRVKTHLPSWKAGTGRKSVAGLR
UniProt Q8ND82: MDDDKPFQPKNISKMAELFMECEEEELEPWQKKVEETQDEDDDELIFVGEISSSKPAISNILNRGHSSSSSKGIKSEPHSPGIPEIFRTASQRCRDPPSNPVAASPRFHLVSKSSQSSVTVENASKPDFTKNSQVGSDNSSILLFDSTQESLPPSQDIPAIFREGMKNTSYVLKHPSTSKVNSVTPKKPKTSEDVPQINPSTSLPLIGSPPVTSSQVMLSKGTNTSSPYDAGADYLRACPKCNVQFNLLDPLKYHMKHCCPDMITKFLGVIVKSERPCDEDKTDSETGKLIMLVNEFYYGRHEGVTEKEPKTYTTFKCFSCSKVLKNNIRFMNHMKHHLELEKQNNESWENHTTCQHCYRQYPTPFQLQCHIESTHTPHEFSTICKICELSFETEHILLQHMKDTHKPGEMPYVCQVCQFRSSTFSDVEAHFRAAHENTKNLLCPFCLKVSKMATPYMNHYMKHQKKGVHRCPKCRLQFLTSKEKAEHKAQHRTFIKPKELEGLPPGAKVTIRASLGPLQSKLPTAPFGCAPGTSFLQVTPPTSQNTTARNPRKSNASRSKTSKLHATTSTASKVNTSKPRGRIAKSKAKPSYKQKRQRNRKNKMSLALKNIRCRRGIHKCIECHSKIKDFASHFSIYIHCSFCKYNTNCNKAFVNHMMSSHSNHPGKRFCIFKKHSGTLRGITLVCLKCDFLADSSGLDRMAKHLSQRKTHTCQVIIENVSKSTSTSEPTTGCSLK
UniProt Q86UK7: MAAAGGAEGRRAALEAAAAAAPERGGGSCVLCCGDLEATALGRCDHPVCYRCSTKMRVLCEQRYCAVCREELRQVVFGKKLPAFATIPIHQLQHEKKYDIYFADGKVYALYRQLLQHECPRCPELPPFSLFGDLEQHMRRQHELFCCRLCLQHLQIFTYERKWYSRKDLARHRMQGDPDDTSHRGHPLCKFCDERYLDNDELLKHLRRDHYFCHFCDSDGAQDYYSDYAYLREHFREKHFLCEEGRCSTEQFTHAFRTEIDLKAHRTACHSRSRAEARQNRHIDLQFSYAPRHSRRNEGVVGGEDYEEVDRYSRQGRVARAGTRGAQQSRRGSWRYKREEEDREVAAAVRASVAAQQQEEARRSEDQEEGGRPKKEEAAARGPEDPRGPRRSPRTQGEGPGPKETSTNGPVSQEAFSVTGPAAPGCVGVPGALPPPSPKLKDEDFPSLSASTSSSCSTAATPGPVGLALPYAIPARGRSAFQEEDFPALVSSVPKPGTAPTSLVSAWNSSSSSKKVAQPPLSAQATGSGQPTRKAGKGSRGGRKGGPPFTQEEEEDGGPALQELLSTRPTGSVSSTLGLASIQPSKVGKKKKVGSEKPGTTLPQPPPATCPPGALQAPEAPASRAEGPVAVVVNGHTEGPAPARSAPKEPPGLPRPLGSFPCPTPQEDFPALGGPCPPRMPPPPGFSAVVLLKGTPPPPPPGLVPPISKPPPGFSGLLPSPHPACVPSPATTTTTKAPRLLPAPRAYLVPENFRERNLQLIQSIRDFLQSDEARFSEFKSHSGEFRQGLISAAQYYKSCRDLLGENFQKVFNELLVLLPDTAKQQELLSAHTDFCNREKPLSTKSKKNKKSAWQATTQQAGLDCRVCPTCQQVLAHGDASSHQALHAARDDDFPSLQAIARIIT
UniProt Q8N8Y5: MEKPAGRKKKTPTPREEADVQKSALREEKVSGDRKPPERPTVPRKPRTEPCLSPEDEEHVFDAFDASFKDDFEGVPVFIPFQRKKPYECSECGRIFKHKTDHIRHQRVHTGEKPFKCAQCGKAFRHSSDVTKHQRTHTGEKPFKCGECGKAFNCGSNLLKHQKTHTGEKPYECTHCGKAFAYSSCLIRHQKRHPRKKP
UniProt Q9UK33: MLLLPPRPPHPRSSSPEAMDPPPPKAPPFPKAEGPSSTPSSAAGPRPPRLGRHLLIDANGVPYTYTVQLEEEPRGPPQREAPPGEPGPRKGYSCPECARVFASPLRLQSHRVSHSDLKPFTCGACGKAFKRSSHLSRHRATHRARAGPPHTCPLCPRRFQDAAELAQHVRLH

Row | Target | probe-labelled cysteine peptide fold change
1 | ZNF330_Q9Y3S2_132_CLSTHACACPLTDAECVECER (UniProt Q9Y3S2) | -0.106
2 | ZNF428_Q96B54_114_LCCPATAPQEAPAPEGR (UniProt Q96B54) | -0.17
3 | ZNF24_P17028_233_YGETCFPK (UniProt P17028) | -0.0598
4 | ZNF516_Q92618_827_ECQPLLLAR (UniProt Q92618) | 0.161
5 | ZNF521_Q96K83_990_SLDTGNCR (UniProt Q96K83) | 0.113
6 | ZNF451_Q9Y4E5_150_TGTINCGTK (UniProt Q9Y4E5) | -0.185
7 | ZNF207_O43670_54_KLYTGPGLAIHCMQVHK (UniProt O43670) | -0.388
8 | ZMYM3_Q14202_1048_RLVLSESCSR (UniProt Q14202) | 0.161
9 | ZNF22_P17026_113_CDECGESFK (UniProt P17026) | 0.00444
10 | ZNF644_Q9H582_450_HLNVPRPYACR (UniProt Q9H582) | 0.386
11 | ZNF451_Q9Y4E5_133_LCVDQWLK (UniProt Q9Y4E5) | -0.144
12 | ZNF143_P52747_299+304_CSEDNCTK (UniProt P52747) | 0.244
13 | ZNF672_Q499Z4_204_VSDAHQCGVCGK (UniProt Q499Z4) | 0.0229
14 | ZNF280C_Q8ND82_714_THTCQVIIENVSK (UniProt Q8ND82) | -0.00287
15 | ZNF598_Q86UK7_33_GGGSCVLCCGDLEATALGR (UniProt Q86UK7) | -0.0479
16 | ZNF430_Q9H8G1_138_CGHEDLQLR (UniProt Q9H8G1) | 0.00587
17 | ZNF512B_Q96KM6_774_AHLASCSK (UniProt Q96KM6) | 0.0104
18 | ZNF330_Q9Y3S2_216_CGHETQETK (UniProt Q9Y3S2) | -0.143
19 | ZNF330_Q9Y3S2_194_ACFCDDHTR (UniProt Q9Y3S2) | -0.198
20 | ZNF330_Q9Y3S2_70_LPICAQCGK (UniProt Q9Y3S2) | 0.0902

Row | Target | probe-labelled cysteine peptide fold change
21 | ZNF598_Q86UK7_150_LCLQHLQIFTYER (UniProt Q86UK7) | 0.0557
22 | ZNF638_Q14966_652_NLEDDTLSECK (UniProt Q14966) | -0.243
23 | ZKSCAN1_P17029_63_FCYQNTFGPR (UniProt P17029) | -0.0953
24 | ZNF451_Q9Y4E5_364+367_GYCPDCNQVFVDETSTQNHK (UniProt Q9Y4E5) | -0.132
25 | ZNF521_Q96K83_31_TEDGEALDCK (UniProt Q96K83) | -0.12
26 | ZFP41_Q8N8Y5_154_AFNCGSNLLK (UniProt Q8N8Y5) | -0.149
27 | ZNF296_Q8WUU4_117_CLQTFPLEAITAFMDHK (UniProt Q8WUU4) | -0.109
28 | ZNF670_Q9BS34_339_THTGVKPYGCK (UniProt Q9BS34) | -0.0364
29 | ZNF580_Q9UK33_122_VSHSDLKPFTCGACGK (UniProt Q9UK33) | -0.0384
30 | ZNF280C_Q8ND82_690_CDFLADSSGLDR (UniProt Q8ND82) | -0.0202
31 | ZFC3H1_O60293_1141_TMEVKPCPFRPYHSPLLVFK (UniProt O60293) | -0.197
32 | ZFYVE1_Q9HBF4_71_LKPGHVPYCDLCK (UniProt Q9HBF4) | 0.168
33 | ZNF280C_Q8ND82_358_QNNESWENHTTCQHCYR (UniProt Q8ND82) | 0.159
34 | ZNF131_P52739_9_MEAEETMECLQEFPEHHK (UniProt P52739) | -0.376
35 | ZFP91_Q96JP5_182_TGSLQLICK (UniProt Q96JP5) | -0.257
36 | ZMYM3_Q14202_1048_LVLSESCSR (UniProt Q14202) | 0.197
37 | ZMIZ2_Q8NF64_418_SPFLPDLKPNLNSLHSSPSGSGPCDELR (UniProt Q8NF64) | -0.465
38 | ZNF428_Q96B54_111_SPLGEAPPGTPPCR (UniProt Q96B54) | -0.32
39 | ZFC3H1_O60293_1864_FCSVMPANSGLALR (UniProt O60293) | 0.0553

— the supplement of paper PMC12067093, “Discovery and optimisation of a covalent ligand for TRIM25 and its application to targeted protein ubiquitination” (Chemical Science, 2025)
